For the assay, the system named is BDF1 mice, P388 leukemia ip, median survival T/C. The assay can be described thus: NCI In Vivo Anticancer Drug Screen. Data for tumor model P388 Leukemia (intraperitoneal) in B6D2F1 (BDF1) mice. The following applies: T/C endpoint: median survival time, higher T/C = longer survival. Put shortly: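 Survival ratio, drug arm over vehicle arm, in mice with a transplanted tumour.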

[1] abbreviates: dose: 150.0 mg/kg/injection, schedule: Q01DX009 (ip), vehicle: Klucel (hydroxypropylcellulose) (HPC).
[2] abbreviates: dose: 400.0 mg/kg/injection, schedule: Q04DX003 (ip), vehicle: Klucel (hydroxypropylcellulose) (HPC).
[3] abbreviates: dose: 200.0 mg/kg/injection, schedule: Q04DX003 (ip), vehicle: saline.
[4] abbreviates: dose: 100.0 mg/kg/injection, schedule: Q01DX009 (ip), vehicle: saline with Tween-80.
The mark [5] stands for this setting: dose: 200.0 mg/kg/injection, schedule: Q01DX009 (ip), vehicle: saline with Tween-80.
[6] abbreviates: dose: 25.0 mg/kg/injection, schedule: Q01DX009 (ip), vehicle: Klucel (hydroxypropylcellulose) (HPC).
The mark [7] stands for this setting: dose: 50.0 mg/kg/injection, schedule: Q01DX009 (ip), vehicle: Klucel (hydroxypropylcellulose) (HPC).
Setting [8] is: dose: 100.0 mg/kg/injection, schedule: Q01DX009 (ip), vehicle: Klucel (hydroxypropylcellulose) (HPC).
[9] abbreviates: dose: 20.0 mg/kg/injection, schedule: Q01DX009 (ip), vehicle: Klucel (hydroxypropylcellulose) (HPC).

Each structure is given as a SMILES string. The list does not hold the whole screen: it is rich in T/C values a quarter to a half above the control, in often repeated tests (any T/C) and in doses without a T/C. Further doses and runs are listed elsewhere. T/C gives the treated animals as a percentage of the vehicle group. Some doses have a count of surviving animals in place of a T/C: the source holds a T/C of zero for them, seemingly a mark for toxic or unscored doses. Some survivor counts are full or nearly so, which does not show that the dose was tolerated: survival well below the control is almost never listed, so the zero probably covers shortened survival too. Counts of survivors are from the toxicity check (mostly the fifth day) where no day follows; animals may have died later. Schedule codes are those of the source, taken here to give the interval after Q, in days (D) or hours (H), and the number of doses after X. Some molecules as drawn cover several salts, stereoisomers or complexes of the source; a dose is that of the sample tested. Some doses were run more than once; the results are listed from low to high. Additions like (4×) count equal records among those shown. For survival time, this PubChem deposit counts one and a half times the control or more as active, and values a quarter to a half above the control carry no call in these data; other NCI protocols may use other cut-offs. Some T/C values carry the count of animals alive at the toxicity check (mostly the fifth day); where none is given, no animal had died by that day.

As for `O=C(O)c1ccc(C(Cl)(Cl)Cl)cc1`, the T/C runs as follows: (dose: 37.5 mg/kg/injection, schedule: Q01DX009 (ip), vehicle: Klucel (hydroxypropylcellulose) (HPC)) 126 % of control; (dose: 75.0 mg/kg/injection, schedule: Q01DX009 (ip), vehicle: Klucel (hydroxypropylcellulose) (HPC)) 134 % of control; (dose: 75.0 mg/kg/injection, schedule: Q01DX009 (ip), vehicle: saline with Tween-80) 142 % of control; (dose: 112.5 mg/kg/injection, schedule: Q01DX009 (ip), vehicle: saline with Tween-80) 125 % of control; under setting [1], 135 % of control. The survivor count (dose: 300.0 mg/kg/injection, schedule: Q01DX009 (ip), vehicle: saline with Tween-80) is listed as 3 of 6.
Consider `c1ccc2c3nc(nc2c1)CCCCCCCN3`, for which the survivor count under setting [2] is 2 of 6.
In the case of `COc1ccc(C(=O)C(Br)C(Br)C(=O)O)cc1` (stereo unspecified), the survivor count reads like this: (dose: 200.0 mg/kg/injection, schedule: Q01DX009 (ip), vehicle: saline) 2 of 6; under setting [3], 1 of 6.
On to `N=C(N)c1ccc(SCCCCCSc2ccc(C(=N)N)cc2)cc1`, for which the survivor count is, setting by setting: (dose: 50.0 mg/kg/injection, schedule: Q01DX009 (ip), vehicle: saline with Tween-80) 0 of 6; under setting [4], 0 of 6; under setting [5], 0 of 6.
In the case of `COc1cc2c(cc1OC)C(c1ccc(N=Cc3ccc(N(C)C)cc3)cc1)N(C(=S)Nc1cc(Cl)ccc1Cl)CC2` (stereo unspecified), the survivor count under setting [4] was 6 of 6.
As for `CCN(/C=C/C=C(C#N)C#N)CC`, the survivor count under setting [5] is listed as 0 of 6.
As for `CCOC(=O)N(C)C(C)Cc1ccccc1` (stereo unspecified), under setting [5], the T/C is 125 % of control.
Turning to `Cc1ccc(S(=O)(=O)N/N=C/c2ccncc2)cc1`, the T/C (dose: 100.0 mg/kg/injection, schedule: Q01DX009 (ip), vehicle: other) is 142 % of control [5 of 6 alive].
Take `C=C1C(=O)OC2/C=C(\C)C3(O)OC(C)(CC(OC(=O)C(C)C)C12)CC3O` (stereo unspecified): the survivor count (dose: 20.0 mg/kg/injection, schedule: Q01DX009 (ip), vehicle: saline) is 3 of 6.
Consider `CCCCn1nnc2c(NN)nc(N)nc21`, for which the survivor count under setting [4] was 0 of 6.
For the compound `Cc1cccnc1NC(=O)/C=C/C(=O)O`, the survivor count (dose: 25.0 mg/kg/injection, schedule: Q04DX003 (ip), vehicle: saline) is listed as 6 of 6; the survivor count (dose: 50.0 mg/kg/injection, schedule: Q01DX009 (ip), vehicle: saline) is 6 of 6; the survivor count (dose: 50.0 mg/kg/injection, schedule: Q04DX003 (ip), vehicle: saline) is 6 of 6.
On to `CC(=O)[O][Hg][c]1s[c]([Hg][O]C(C)=O)[c]([Hg][O]C(C)=O)[c]1[Hg][O]C(C)=O`, for which the survivor count reads like this: (dose: 15.0 mg/kg/injection, schedule: Q04DX003 (ip), vehicle: saline) 2 of 6; (dose: 30.0 mg/kg/injection, schedule: Q04DX003 (ip), vehicle: saline) 3 of 6.
With `CCOC(=O)c1c(N)[nH]c(SSc2[nH]c(N)c(C(=O)OCC)c2C(=O)OCC)c1C(=O)OCC`, the survivor count is on record as 3 of 6 under setting [4] and 2 of 6 (dose: 400.0 mg/kg/injection, schedule: Q01DX009 (ip), vehicle: saline with Tween-80). The T/C under setting [5] is 131 % of control [5 of 6 alive].
Consider `CN(C)c1ccc(/C=C/c2ccnc3c(-c4ccccc4)cccc23)cc1`, for which, under setting [5], the survivor count is on record as 5 of 6.
As to `O=S(=O)(NC1CCCCC1)c1ccccc1`, for the setting “dose: 200.0 mg/kg/injection, schedule: Q04DX003 (ip), vehicle: saline with Tween-80”, the survivor count is on record as 6 of 6.
`C[n+]1ccc(Nc2ccc(NC(=O)c3ccc(Nc4cc[n+](C)c5ccc(N)cc45)cc3N)cc2)cc1`: the T/C was 138 % of control (dose: 0.39 mg/kg/injection, schedule: Q01DX009 (ip), vehicle: Klucel (hydroxypropylcellulose) (HPC)); 135 % of control [5 of 6 alive] (dose: 0.78 mg/kg/injection, schedule: Q01DX009 (ip), vehicle: Klucel (hydroxypropylcellulose) (HPC)); 141 % of control (dose: 1.0 mg/kg/injection, schedule: Q01DX009 (ip), vehicle: saline with Tween-80); 133 % of control (dose: 1.32 mg/kg/injection, schedule: Q04DX003 (ip), vehicle: saline with Tween-80); 142 % of control (dose: 2.0 mg/kg/injection, schedule: Q04DX003 (ip), vehicle: saline with Tween-80); 145 % of control (dose: 2.4 mg/kg/injection, schedule: Q04DX003 (ip), vehicle: saline with Tween-80). The T/C (dose: 6.25 mg/kg/injection, schedule: Q04DX003 (ip), vehicle: saline) was 149 % of control; the T/C (dose: 18.7 mg/kg/injection, schedule: Q04DX003 (ip), vehicle: saline) is 127 % of control; the T/C under setting [6] is 131 % of control; the T/C (dose: 25.0 mg/kg/injection, schedule: Q01DX010 (ip), vehicle: saline) is 140 % of control. Moreover, the survivor count reads like this: under setting [7], 2 of 6 and 3 of 6; under setting [8], 4 of 6; (dose: 100.0 mg/kg/injection, schedule: Q01DX009 (ip), vehicle: saline) 5 of 6; (dose: 100.0 mg/kg/injection, schedule: Q01DX010 (ip), vehicle: saline) 1 of 6; (dose: 100.0 mg/kg/injection, schedule: Q04DX003 (ip), vehicle: saline) 1 of 6 (2×); under setting [3], 0 of 6. In addition, the survivor count (dose: 400.0 mg/kg/injection, schedule: Q04DX003 (ip), vehicle: saline) is 0 of 6.
`O=C(O)CNC(=O)CCl`: the survivor count runs as follows: under setting [1], 3 of 6; (dose: 335.0 mg/kg/injection, schedule: Q01DX009 (ip), vehicle: Klucel (hydroxypropylcellulose) (HPC)) 3 of 6.
Regarding `O=C(CCCN1CCC(C(=O)c2ccc(Cl)cc2)CC1)c1ccc(F)cc1`, the survivor count under setting [6] was 6 of 6; the survivor count under setting [7] is 2 of 6 and 3 of 6; the survivor count under setting [8] is recorded as 0 of 6; the survivor count (dose: 200.0 mg/kg/injection, schedule: Q01DX009 (ip), vehicle: Klucel (hydroxypropylcellulose) (HPC)) was 0 of 6.
Turning to `Cc1cc(N(C)C)c2ccc3cc4ccccc4cc3c2n1`, under setting [5], the T/C was 128 % of control and the survivor count is listed as 3 of 6.
On to `C[C@]12CC[C@H](OC3OC(CO)C(O)C(O)C3O)C[C@H]1CC[C@@H]1[C@@H]2CC[C@]2(C)[C@@H](C3=CCOC3=O)CC[C@]12O` (stereo partly specified), for which the survivor count (dose: 1.6 mg/kg/injection, schedule: Q01DX010 (ip), vehicle: saline) is recorded as 6 of 6; the survivor count (dose: 2.0 mg/kg/injection, schedule: Q01DX010 (ip), vehicle: saline) was 6 of 6; the survivor count (dose: 3.2 mg/kg/injection, schedule: Q01DX010 (ip), vehicle: saline) is 6 of 6.
Consider `O=C1COc2ccccc2N1`, for which the survivor count (dose: 400.0 mg/kg/injection, schedule: Q01DX001 (ip), vehicle: Klucel (hydroxypropylcellulose) (HPC)) is 0 of 6.
Turning to `CCOC(=O)C(Br)C(Br)C(=O)OCC` (stereo unspecified), the survivor count under setting [5] was 1 of 6.
Turning to `Cc1c[n+]2c3ccccc3c3ccccc3c2s1`, the T/C by setting is: (dose: 10.0 mg/kg/injection, schedule: Q01DX009 (ip), vehicle: Klucel (hydroxypropylcellulose) (HPC)) 131 % of control; under setting [9], 136 % of control. The survivor count reads like this: under setting [9], 3 of 6; (dose: 40.0 mg/kg/injection, schedule: Q01DX009 (ip), vehicle: Klucel (hydroxypropylcellulose) (HPC)) 0 of 6; (dose: 40.0 mg/kg/injection, schedule: Q04DX003 (ip), vehicle: Klucel (hydroxypropylcellulose) (HPC)) 6 of 6; (dose: 80.0 mg/kg/injection, schedule: Q01DX009 (ip), vehicle: Klucel (hydroxypropylcellulose) (HPC)) 0 of 6; (dose: 100.0 mg/kg/injection, schedule: Q04DX003 (ip), vehicle: Klucel (hydroxypropylcellulose) (HPC)) 1 of 6; under setting [2], 0 of 6.

The values are drawn from PubChem BioAssay AID328 (DTP/NCI, 2004).
